The results in this text go back to PMC11674061.

Amino acid sequences for entries named in this document (tags omitted). A change or cut given only in a name is not applied to a line headed by its entry. Chains listed by the source or under a name are the forms on record and can include a tag or linker.
UniProt P34152: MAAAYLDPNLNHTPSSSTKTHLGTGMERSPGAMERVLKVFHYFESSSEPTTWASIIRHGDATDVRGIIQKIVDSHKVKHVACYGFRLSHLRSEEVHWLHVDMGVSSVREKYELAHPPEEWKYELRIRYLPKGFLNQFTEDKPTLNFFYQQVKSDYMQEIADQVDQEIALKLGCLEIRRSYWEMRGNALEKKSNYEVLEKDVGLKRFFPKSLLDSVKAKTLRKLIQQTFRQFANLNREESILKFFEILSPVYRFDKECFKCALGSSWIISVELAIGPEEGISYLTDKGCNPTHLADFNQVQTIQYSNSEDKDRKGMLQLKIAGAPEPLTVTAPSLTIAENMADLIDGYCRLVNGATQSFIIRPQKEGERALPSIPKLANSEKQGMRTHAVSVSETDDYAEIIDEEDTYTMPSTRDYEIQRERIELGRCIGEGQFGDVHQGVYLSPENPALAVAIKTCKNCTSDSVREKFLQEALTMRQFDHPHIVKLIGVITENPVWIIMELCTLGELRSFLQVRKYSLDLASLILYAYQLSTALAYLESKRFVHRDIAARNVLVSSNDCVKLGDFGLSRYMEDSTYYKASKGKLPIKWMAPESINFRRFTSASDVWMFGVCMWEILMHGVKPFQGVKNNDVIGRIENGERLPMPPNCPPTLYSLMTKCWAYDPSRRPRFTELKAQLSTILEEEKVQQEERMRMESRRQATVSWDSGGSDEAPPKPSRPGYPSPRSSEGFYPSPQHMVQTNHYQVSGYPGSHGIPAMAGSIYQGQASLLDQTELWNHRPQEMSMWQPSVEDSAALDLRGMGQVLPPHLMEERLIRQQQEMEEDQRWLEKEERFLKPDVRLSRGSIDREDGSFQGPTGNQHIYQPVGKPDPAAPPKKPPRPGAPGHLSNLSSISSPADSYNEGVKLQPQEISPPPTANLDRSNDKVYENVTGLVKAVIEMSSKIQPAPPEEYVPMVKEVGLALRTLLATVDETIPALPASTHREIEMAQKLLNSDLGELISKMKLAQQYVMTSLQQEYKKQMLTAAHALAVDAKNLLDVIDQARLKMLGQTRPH
GFP-tagged mouse FAK mutant with Ser708, Thr739 and Ser886 replaced with Ala (P34152, form named): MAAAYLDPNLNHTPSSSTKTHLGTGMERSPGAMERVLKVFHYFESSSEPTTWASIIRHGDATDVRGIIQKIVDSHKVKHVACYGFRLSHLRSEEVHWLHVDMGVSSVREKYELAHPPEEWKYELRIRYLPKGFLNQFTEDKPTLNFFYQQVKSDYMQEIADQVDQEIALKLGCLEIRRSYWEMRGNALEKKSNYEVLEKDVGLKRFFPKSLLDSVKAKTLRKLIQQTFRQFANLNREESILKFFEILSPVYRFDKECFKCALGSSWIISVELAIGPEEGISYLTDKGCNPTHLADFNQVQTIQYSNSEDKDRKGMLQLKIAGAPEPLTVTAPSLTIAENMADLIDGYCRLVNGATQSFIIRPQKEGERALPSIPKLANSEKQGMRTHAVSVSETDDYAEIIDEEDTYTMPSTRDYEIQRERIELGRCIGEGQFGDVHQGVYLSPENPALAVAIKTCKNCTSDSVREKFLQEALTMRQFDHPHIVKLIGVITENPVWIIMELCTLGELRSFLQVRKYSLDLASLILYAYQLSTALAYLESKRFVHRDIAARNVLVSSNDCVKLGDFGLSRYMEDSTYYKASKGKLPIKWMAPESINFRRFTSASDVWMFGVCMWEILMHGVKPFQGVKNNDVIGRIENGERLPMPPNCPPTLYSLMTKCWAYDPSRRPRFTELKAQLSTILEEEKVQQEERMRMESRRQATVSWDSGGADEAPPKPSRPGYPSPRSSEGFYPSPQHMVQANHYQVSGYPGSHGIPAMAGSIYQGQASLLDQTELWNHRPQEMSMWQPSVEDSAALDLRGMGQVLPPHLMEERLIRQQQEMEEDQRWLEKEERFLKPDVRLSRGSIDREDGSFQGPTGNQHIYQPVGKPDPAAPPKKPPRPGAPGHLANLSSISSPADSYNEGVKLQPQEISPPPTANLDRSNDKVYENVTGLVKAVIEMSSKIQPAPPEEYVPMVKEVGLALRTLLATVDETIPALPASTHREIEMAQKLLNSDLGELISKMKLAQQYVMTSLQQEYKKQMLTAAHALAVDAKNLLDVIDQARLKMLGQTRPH
UniProt P49023: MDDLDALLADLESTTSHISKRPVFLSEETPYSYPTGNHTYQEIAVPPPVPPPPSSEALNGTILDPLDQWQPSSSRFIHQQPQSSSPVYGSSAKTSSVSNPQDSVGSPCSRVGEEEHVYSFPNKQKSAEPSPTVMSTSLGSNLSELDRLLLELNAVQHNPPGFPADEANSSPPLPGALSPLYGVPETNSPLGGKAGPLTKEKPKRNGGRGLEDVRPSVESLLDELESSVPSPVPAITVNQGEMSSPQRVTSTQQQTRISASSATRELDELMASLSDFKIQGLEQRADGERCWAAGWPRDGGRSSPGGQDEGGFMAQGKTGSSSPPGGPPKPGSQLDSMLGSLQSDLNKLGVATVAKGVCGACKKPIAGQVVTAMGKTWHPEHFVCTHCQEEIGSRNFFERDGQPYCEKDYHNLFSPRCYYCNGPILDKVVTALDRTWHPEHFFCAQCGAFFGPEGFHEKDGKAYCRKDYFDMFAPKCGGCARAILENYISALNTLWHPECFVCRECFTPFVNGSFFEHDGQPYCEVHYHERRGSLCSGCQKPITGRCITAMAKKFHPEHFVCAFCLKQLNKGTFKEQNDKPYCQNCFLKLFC

These are yes or no findings as the source states them, for the method shown. Binding seen in cells or lysates may run through a third protein. Some binding calls cover weakened binding; strength is not graded here.

The target in the test is GFP-tagged mouse FAK mutant with Ser708, Thr739 and Ser886 replaced with Ala (mouse) (UniProt P34152). In words: co-IP; lysates of 293T FAK-KO cells transfected with GFP-tagged WT or MUT FAK (20 mM Tris-HCl pH 7.4, 150 mM NaCl, 0.1% Triton X-100) incubated with anti-GFP magnetic beads at 4 °C for 2 h; immunoprecipitates blotted with anti-paxillin and anti-talin.

With paxillin (from UniProt P49023 1-591), the binding result was “binds”.
